Values quoted from earlier work in patent US20080227096A1, “Assay for response to proteasome inhibitors” (Centenary Institute of Cancer Medicine and Cell Biology, priority 2006, published 2008).
At least one compound was matched to its structure with a doubt left.

Assays:
myeloma = settings: phase III randomised control trial; cited from earlier work
relapsed myeloma = settings: patients with relapsed myeloma, randomised trial, cited from earlier work

Structure (SMILES)	outcome on addition of the P-gp inhibitor (myeloma)	overall response rate (relapsed myeloma; p<0.001) [%]	complete response rate (relapsed myeloma) [%]	one-year survival rate (relapsed myeloma) [%]
C/C=C/C[C@@H](C)C(=O)[C@H]1C(=O)N[C@@H](C(C)C)C(=O)N(C)CC(=O)N(C)[C@@H](CC(C)C)C(=O)N[C@@H](C(C)C)C(=O)N(C)[C@@H](CC(C)C)C(=O)N[C@@H](C)C(=O)N[C@H](C)C(=O)N(C)[C@@H](CC(C)C)C(=O)N(C)[C@@H](CC(C)C)C(=O)N(C)[C@@H](C(C)C)C(=O)N1C [Valspodar]	did not improve outcome			
C[C@@H]1C[C@H]2[C@@H]3CCC4=CC(=O)C=C[C@]4(C)[C@@]3(F)[C@@H](O)C[C@]2(C)[C@@]1(O)C(=O)CO [dexamethasone]		18	< 1	66
